Measured values published in patent publication US20240218058A1.
Results are given in words; binding and its absence hold for the method and conditions named. Some results given as binding are weak or reduced against the parent protein; the word gives no strength.

Chains of the proteins cited; added tags and fusions are not shown. Lines headed by an entry give the natural chain unless they say otherwise; changes in a name come on top.
UniProt P02671: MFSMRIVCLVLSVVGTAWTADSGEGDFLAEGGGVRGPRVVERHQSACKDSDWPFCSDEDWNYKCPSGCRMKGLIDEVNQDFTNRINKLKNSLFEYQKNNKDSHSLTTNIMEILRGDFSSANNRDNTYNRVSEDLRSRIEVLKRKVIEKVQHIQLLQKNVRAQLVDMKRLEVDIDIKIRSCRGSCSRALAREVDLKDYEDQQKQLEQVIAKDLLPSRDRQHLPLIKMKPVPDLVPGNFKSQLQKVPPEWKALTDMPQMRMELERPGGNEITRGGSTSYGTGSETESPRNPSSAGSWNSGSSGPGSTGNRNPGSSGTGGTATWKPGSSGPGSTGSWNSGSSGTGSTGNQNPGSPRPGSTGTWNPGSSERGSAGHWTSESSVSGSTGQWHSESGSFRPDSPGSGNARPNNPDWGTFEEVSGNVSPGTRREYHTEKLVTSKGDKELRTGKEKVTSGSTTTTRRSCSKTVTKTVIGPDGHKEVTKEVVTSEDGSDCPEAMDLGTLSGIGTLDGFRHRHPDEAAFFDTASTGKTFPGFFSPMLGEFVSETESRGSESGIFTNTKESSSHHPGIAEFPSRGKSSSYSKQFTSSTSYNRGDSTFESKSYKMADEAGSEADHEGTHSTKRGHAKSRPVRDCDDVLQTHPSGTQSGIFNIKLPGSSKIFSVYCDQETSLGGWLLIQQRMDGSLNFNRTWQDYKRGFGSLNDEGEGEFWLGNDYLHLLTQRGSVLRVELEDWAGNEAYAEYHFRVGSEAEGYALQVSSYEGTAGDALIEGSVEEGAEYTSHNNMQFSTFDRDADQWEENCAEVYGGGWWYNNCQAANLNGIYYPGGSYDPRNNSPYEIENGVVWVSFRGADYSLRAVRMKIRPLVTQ
UniProt P02675: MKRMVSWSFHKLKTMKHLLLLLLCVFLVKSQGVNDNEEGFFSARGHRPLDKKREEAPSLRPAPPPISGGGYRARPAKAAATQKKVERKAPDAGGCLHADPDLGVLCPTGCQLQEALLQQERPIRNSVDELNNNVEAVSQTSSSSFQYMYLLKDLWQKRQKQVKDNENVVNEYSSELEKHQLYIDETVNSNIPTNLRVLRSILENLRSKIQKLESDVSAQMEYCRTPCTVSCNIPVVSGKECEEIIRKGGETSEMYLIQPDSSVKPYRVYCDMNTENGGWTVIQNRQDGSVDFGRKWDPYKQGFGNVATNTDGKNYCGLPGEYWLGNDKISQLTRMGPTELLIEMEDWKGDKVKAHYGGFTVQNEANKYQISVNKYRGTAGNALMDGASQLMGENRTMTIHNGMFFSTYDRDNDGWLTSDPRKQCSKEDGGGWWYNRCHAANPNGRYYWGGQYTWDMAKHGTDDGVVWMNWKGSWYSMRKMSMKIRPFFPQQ
UniProt P02679: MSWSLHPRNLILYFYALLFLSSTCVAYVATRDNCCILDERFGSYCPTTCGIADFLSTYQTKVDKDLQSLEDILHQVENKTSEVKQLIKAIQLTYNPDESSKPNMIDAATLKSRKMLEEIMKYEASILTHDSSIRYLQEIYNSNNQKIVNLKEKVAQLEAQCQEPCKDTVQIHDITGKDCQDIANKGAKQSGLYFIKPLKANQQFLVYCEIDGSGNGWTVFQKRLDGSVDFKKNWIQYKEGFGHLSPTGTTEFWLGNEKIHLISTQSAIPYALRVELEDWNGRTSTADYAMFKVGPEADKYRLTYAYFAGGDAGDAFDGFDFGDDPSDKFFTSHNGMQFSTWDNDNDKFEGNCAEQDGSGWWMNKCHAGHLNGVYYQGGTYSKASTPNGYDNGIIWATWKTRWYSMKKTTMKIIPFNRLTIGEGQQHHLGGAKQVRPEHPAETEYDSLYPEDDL

Target: human blood clots (human) (UniProt P02671+P02675+P02679)
Assay: immunohistochemical staining of blood clots in a human lung cancer resected specimen

binding: binds
B1: humanized 1101 antibody (antibody, V domains shown)
VH: EVQLVQSGAEVKKPGESLKISCKGSGYSFTSYWMHWVRQMPGKGLEWIGAIYPGNSDTRYSPSFQGQVTISADKSISTAYLQWSSLKASDTAMYYCTRKAHYGNYGFAYWGQGTLVTVSS
VL: DIQMTQSPSSLSASVGDRVTITCRASQHINNWLAWYQQKPGKAPKLLISGATSLQSGVPSRFSGSGSGTDFTLTISSLQPEDFATYYCQQYWSTPLTFGQGTKVEIKR
